Data: paper PMC4637324
No constants are given. Whether binding was seen depends on the method and setting. Binding seen in cells or lysates may run through a third protein. Some results given as binding are weak or reduced against the parent protein; the word gives no strength.

Amino acid sequences for entries named in this document (tags omitted).
UniProt O00401: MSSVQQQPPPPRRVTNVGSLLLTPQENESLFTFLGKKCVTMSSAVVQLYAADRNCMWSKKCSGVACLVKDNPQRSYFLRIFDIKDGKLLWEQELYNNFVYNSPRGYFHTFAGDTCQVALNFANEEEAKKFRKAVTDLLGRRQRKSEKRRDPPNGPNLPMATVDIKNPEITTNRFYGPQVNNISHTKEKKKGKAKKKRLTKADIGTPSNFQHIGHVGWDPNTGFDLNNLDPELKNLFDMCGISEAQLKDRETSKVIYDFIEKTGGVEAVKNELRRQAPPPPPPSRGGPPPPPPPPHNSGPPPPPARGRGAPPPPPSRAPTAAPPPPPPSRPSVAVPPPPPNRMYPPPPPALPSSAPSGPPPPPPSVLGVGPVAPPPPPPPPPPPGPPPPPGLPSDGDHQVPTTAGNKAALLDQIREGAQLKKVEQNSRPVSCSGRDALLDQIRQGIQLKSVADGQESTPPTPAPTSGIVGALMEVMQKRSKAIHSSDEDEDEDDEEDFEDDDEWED

B1: RTVP-1, endogenous in glioma cells (protein, UniProt P48060 22-266)
chain: ANILPDIENEDFIKDCVRIHNKFRSEVKPTASDMLYMTWDPALAQIAKAWASNCQFSHNTRLKPPHKLHPNFTSLGENIWTGSVPIFSVSSAITNWYDEIQDYDFKTRICKKVCGHYTQVVWADSYKVGCAVQFCPKVSGFDALSNGAHFICNYGPGGNYPTWPYKRGATCSACPNNDKCLDNLCVNRQRDQVKRYYSVVYPGWPIYPRNRYTSLFLIVNSVILILSVIITILVQHKYPNLVLLD
B2: RTVP-1 overexpressed in U87 cells (protein, UniProt P48060 22-266)
chain: B1 chain

Legend:
[1] = target: N-WASP (neural WASP), endogenous in glioma cells (human (endogenous in U87 and HF2609 GSCs)) (UniProt O00401); test: co-IP; reciprocal co-immunoprecipitation of endogenous proteins from U87 glioma cells and GSCs (HF2609)
[2] = target: heterogeneous nuclear ribonucleoprotein K (hnRNPK), endogenous in glioma cells (human (endogenous in U87 and GSCs)) (UniProt P61978); test: as above
[3] = target: N-WASP (neural WASP), endogenous in glioma cells (human (endogenous in U87 and HF2609 GSCs)) (UniProt O00401); test: co-IP; lysates of U87 cells (CV cells and RTVP-1-overexpressing cells), immunoprecipitation with anti-hnRNPK antibody, blots with anti-N-WASP, anti-hnRNPK and anti-RTVP-1

Row | Binder | binding [1] | binding [2] | binding [3]
1 | B1 | binds | binds | –
2 | B2 | – | – | binds
